In patent US20260275319A1, “ARCHAEAL PEPTIDE RECOMBINASE – A NOVEL PEPTIDE LIGATING ENZYME” (MAX-PLANCK-GESELLSCHAFT ZUR FÖRDERUNG DER WISSENSCHAFTEN …, priority 2019, published 2026):
No constants are given. Whether binding was seen depends on the method and setting. Binding calls can cover weak binding; strength is not graded here. Sequences can lack the tags named with a protein.

How the values were obtained:
[1] = target: M. jannaschii MtrA^Δ174-245 with N-terminal His6-tag (Methanocaldococcus jannaschii); assay: SEC-MALS, 1:1 molar mixture of 200 µM proteins
[2] = target: M. jannaschii MtrA^Δ174-245 with N-terminal His6-tag (Methanocaldococcus jannaschii); assay: SEC-MALS, 1:1 molar mixture
[3] = target: M. jannaschii MtrA^Δ174-245 with N-terminal His6-tag (Methanocaldococcus jannaschii); assay: size-exclusion chromatography with light scattering (SEC-MALS), A280 against volume
[4] = target: M. jannaschii MtrA^Δ174-245 with N-terminal His6-tag (Methanocaldococcus jannaschii); assay: microscale thermophoresis (MST), Adriase titrated against labelled MtrA^Δ174-245, three measurements

Measured: binding

B1: M. jannaschii Adriase S1A mutant with C-terminal His-tag (enzyme)
chain: ALIICYYGKNGAVIGGDRRQIFFRGSEENRKILEEKLYSGEIKSEEELYKLAEKLNIKIIIEDDREKVRKISDSVVCGEVRSLGIDAKRRRVYATKGKCAIVDILNDTVTNQTIKEGFGIVVLGNRFLKKKAEEELKRTAKLFPMMPIQQIEDAIKEIFEKLKWHPTVSKEYDIYSVNKYEKNFEEVIKKDIESLFKYREQLRKQLIDFGKVMSIVNKIVKNGEIGVIKDGKLHLYDDYIAIDKIDPNPKVFKVVDVEGNFKDGDIVVIENGDMKIKGTNEKVTTKYIIIHKGSHHHHHH
binds: [1] | [2] | [3] | [4]
